Assay results taken from US11135228B2, “Cysteinyl-proresolving mediators that promote resolution of infection and organ protection” (THE BRIGHAM AND WOMEN'S HOSPITAL, priority 2014, dated 2021).

Assay: LC-MS-MS MRM quantification of sulfido-conjugate levels in mouse tissues
Settings: endogenous level

Row | Compound | 24 h Mouse infected spleens
1 | CCCCC/C=C\C\C=C/C=C/C=C/[C@@H](SC[C@H](N)C(=O)NCC(=O)O)[C@@H](O)CCCC(=O)O [LTD4] | ^a (Below limits, ~1 pg)
2 | CCCCC/C=C\C\C=C/C=C/C=C/[C@@H](SC[C@H](N)C(=O)O)[C@@H](O)CCCC(=O)O [LTE4] | ^a (Below limits, ~1 pg)
3 | CC/C=C\C[C@H](O)[C@@H](/C=C/C=C/C=C\C/C=C\C/C=C\CCC(=O)O)SC[C@H](N)C(=O)NCC(=O)O [PCTR2, 16-cysteinylglycinyl, 17-hydroxy-4Z,7Z,10,12,14,19Z-docosahexaenoic acid] | ^a (Below limits, ~1 pg)
4 | CC/C=C\C[C@H](O)/C=C/C=C\C=C\C=C\[C@@H](SC[C@H](NC(=O)CC[C@H](N)C(=O)O)C(=O)NCC(=O)O)[C@@H](O)C/C=C\CCC(=O)O [RCTR1, 8-glutathionyl, 7,17-hydroxy-4Z,9,11,13Z,15E,19Z-docosahexaenoic acid] | ^a (Below limits, ~1 pg)
5 | CC/C=C\C[C@H](O)/C=C/C=C\C=C\C=C\[C@@H](SC[C@H](N)C(=O)NCC(=O)O)[C@@H](O)C/C=C\CCC(=O)O [RCTR2, 8-cysteinylglycinyl, 7,17-hydroxy-4Z,9,11,13Z,15E,19Z-docosahexaenoic acid] | ^a (Below limits, ~1 pg)
6 | CC/C=C\CC(O)/C=C/C=C\C=C\C=C\C(SCC(N)C(=O)O)C(O)C/C=C\CCC(=O)O (centres unmarked) [RCTR3, 8-cysteinyl, 7,17-hydroxy-4Z,9,11,13Z,15E,19Z-docosahexaenoic acid] | ^a (Below limits, ~1 pg)

Same assay, conditions: endogenous level; mean ± SEM; n 3 mice

Row | Compound | 24 h Mouse infected spleens [pg/mg]
7 | 13-cysteinyl, 14-hydroxy-docosahexaenoic acid [MCTR3] | 53.0 ± 14.9
8 | 13-glutathionyl, 14-hydroxy-docosahexaenoic acid [SCI] | 10.0 ± 4.1
9 | CCCCC/C=C\C\C=C/C=C/C=C/[C@@H](SC[C@H](NC(=O)CC[C@H](N)C(=O)O)C(=O)NCC(=O)O)[C@@H](O)CCCC(=O)O [LTC4] | 43.3 ± 15.4
10 | CC/C=C\CC(O)C(/C=C/C=C/C=C\C/C=C\C/C=C\CCC(=O)O)SCC(NC(=O)CCC(N)C(=O)O)C(=O)NCC(=O)O (centres unmarked) [PCTR1, 16-glutathionyl, 17-hydroxy-4Z,7Z,10,12,14,19Z-docosahexaenoic acid] | 19.4 ± 4.8
11 | CC/C=C\C[C@H](O)[C@@H](/C=C/C=C/C=C\C/C=C\C/C=C\CCC(=O)O)SC[C@H](N)C(=O)O [PCTR3, 16-cysteinyl, 17-hydroxy-4Z,7Z,10,12,14,19Z-docosahexaenoic acid] | 23.3 ± 4.4
12 | CCC=CCC=CCC(O)C(C=CC=CC=CCC=CCCC(=O)O)SCC(N)C(=O)NCC(=O)O (centres unmarked) [SCII, 13-cysteinylglycinyl, 14-hydroxy-docosahexaenoic acid] | 22.2 ± 17.5

Same assay, conditions: endogenous level; mean ± SEM; n 6 mice; lavage volume 5 ml

Row | Compound | 24 h Resolving mouse exudates [pg/lavage]
13 | 13-cysteinyl, 14-hydroxy-docosahexaenoic acid [MCTR3] | 13.4 ± 3.7
14 | 13-glutathionyl, 14-hydroxy-docosahexaenoic acid [SCI] | 1.8 ± 0.7
